This is an account of results in publication PMC3823998, “Structural and Functional Characterization of the Redβ Recombinase from Bacteriophage λ” (PLoS ONE, 2013).

Common to all, as to experiment: EMSA
In general terms: In EMSA bound probe runs differently from free probe, usually more slowly.

In data set [1] the target is T1, Redβ D80A (Bacteriophage λ (Enterobacteria phage λ)) (UniProt P03698).
T1 sequence (looked up): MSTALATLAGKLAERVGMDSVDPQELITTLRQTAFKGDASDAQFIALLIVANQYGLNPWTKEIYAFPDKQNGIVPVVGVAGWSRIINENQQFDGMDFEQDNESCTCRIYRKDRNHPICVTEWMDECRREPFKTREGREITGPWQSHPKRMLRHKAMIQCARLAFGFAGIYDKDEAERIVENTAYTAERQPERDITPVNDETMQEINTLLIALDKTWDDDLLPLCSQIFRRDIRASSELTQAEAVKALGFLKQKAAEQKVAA
The conditions noted are these: 5 mM Mg2+, second strand added after first; ssDNA EMSA: 10 nM DNA, 50 mM potassium phosphate pH 6.0, 5 mM EDTA, 5% glycerol, 0.1 mg/ml BSA, 37°C, 40 min, then 0.1% glutaraldehyde; recombinant protein; residues 1-261; protein details: His6 removed, N-terminal GSH left; label: 5' Cy3 on strand 1, strand 2 unlabeled.

The target in data set [2] is T2, Redβ G78A (Bacteriophage λ (Enterobacteria phage λ)) (UniProt P03698).
T2 sequence (looked up): T1 sequence (looked up) with G78A, A80D
The conditions noted are these: 5 mM Mg2+, second strand added after first; ssDNA EMSA: 10 nM DNA, 50 mM potassium phosphate pH 6.0, 5 mM EDTA, 5% glycerol, 0.1 mg/ml BSA, 37°C, 40 min, then 0.1% glutaraldehyde; recombinant protein; residues 1-261; protein details: His6 removed, N-terminal GSH left; label: 5' Cy3 on strand 1, strand 2 unlabeled.

Data set [3] concerns the target T3, Redβ K132A (Bacteriophage λ (Enterobacteria phage λ)) (UniProt P03698).
T3 sequence (looked up): T1 sequence (looked up) with A80D, K132A
The conditions noted are these: 5 mM Mg2+, second strand added after first; ssDNA EMSA: 10 nM DNA, 50 mM potassium phosphate pH 6.0, 5 mM EDTA, 5% glycerol, 0.1 mg/ml BSA, 37°C, 40 min, then 0.1% glutaraldehyde; recombinant protein; residues 1-261; protein details: His6 removed, N-terminal GSH left; label: 5' Cy3 on strand 1, strand 2 unlabeled.

For data set [4], the target named is T4, Redβ K148A (Bacteriophage λ (Enterobacteria phage λ)) (UniProt P03698).
T4 sequence (looked up): T1 sequence (looked up) with A80D, K148A
Conditions: 5 mM Mg2+, second strand added after first; ssDNA EMSA: 10 nM DNA, 50 mM potassium phosphate pH 6.0, 5 mM EDTA, 5% glycerol, 0.1 mg/ml BSA, 37°C, 40 min, then 0.1% glutaraldehyde; recombinant protein; residues 1-261; protein details: His6 removed, N-terminal GSH left; label: 5' Cy3 on strand 1, strand 2 unlabeled.

Data set [5] addresses T5, Redβ K172A (Bacteriophage λ (Enterobacteria phage λ)) (UniProt P03698).
T5 sequence (looked up): T1 sequence (looked up) with A80D, K172A
The conditions noted are these: 5 mM Mg2+, second strand added after first; ssDNA EMSA: 10 nM DNA, 50 mM potassium phosphate pH 6.0, 5 mM EDTA, 5% glycerol, 0.1 mg/ml BSA, 37°C, 40 min, then 0.1% glutaraldehyde; recombinant protein; residues 1-261; protein details: His6 removed, N-terminal GSH left; label: 5' Cy3 on strand 1, strand 2 unlabeled.

In data set [6] the target is T6, Redβ K69A (Bacteriophage λ (Enterobacteria phage λ)) (UniProt P03698).
T6 sequence (looked up): T1 sequence (looked up) with K69A, A80D
Conditions: 5 mM Mg2+, second strand added after first; ssDNA EMSA: 10 nM DNA, 50 mM potassium phosphate pH 6.0, 5 mM EDTA, 5% glycerol, 0.1 mg/ml BSA, 37°C, 40 min, then 0.1% glutaraldehyde; recombinant protein; residues 1-261; protein details: His6 removed, N-terminal GSH left; label: 5' Cy3 on strand 1, strand 2 unlabeled.

In data set [7] the target is T7, Redβ R149A (Bacteriophage λ (Enterobacteria phage λ)) (UniProt P03698).
T7 sequence (looked up): T1 sequence (looked up) with A80D, R149A
The conditions noted are these: 5 mM Mg2+, second strand added after first; ssDNA EMSA: 10 nM DNA, 50 mM potassium phosphate pH 6.0, 5 mM EDTA, 5% glycerol, 0.1 mg/ml BSA, 37°C, 40 min, then 0.1% glutaraldehyde; recombinant protein; residues 1-261; protein details: His6 removed, N-terminal GSH left; label: 5' Cy3 on strand 1, strand 2 unlabeled.

Data set [8] has as its target T8, Redβ R152A (Bacteriophage λ (Enterobacteria phage λ)) (UniProt P03698).
T8 sequence (looked up): T1 sequence (looked up) with A80D, R152A
Conditions: 5 mM Mg2+, second strand added after first; ssDNA EMSA: 10 nM DNA, 50 mM potassium phosphate pH 6.0, 5 mM EDTA, 5% glycerol, 0.1 mg/ml BSA, 37°C, 40 min, then 0.1% glutaraldehyde; recombinant protein; residues 1-261; protein details: His6 removed, N-terminal GSH left; label: 5' Cy3 on strand 1, strand 2 unlabeled.

Data set [9] addresses T9, Redβ R161A (Bacteriophage λ (Enterobacteria phage λ)) (UniProt P03698).
T9 sequence (looked up): T1 sequence (looked up) with A80D, R161A
The conditions noted are these: 5 mM Mg2+, second strand added after first; ssDNA EMSA: 10 nM DNA, 50 mM potassium phosphate pH 6.0, 5 mM EDTA, 5% glycerol, 0.1 mg/ml BSA, 37°C, 40 min, then 0.1% glutaraldehyde; recombinant protein; residues 1-261; protein details: His6 removed, N-terminal GSH left; label: 5' Cy3 on strand 1, strand 2 unlabeled.

In data set [10] the target is T10, Redβ V77A (Bacteriophage λ (Enterobacteria phage λ)) (UniProt P03698).
T10 sequence (looked up): T1 sequence (looked up) with V77A, A80D
The conditions noted are these: 5 mM Mg2+, second strand added after first; ssDNA EMSA: 10 nM DNA, 50 mM potassium phosphate pH 6.0, 5 mM EDTA, 5% glycerol, 0.1 mg/ml BSA, 37°C, 40 min, then 0.1% glutaraldehyde; recombinant protein; residues 1-261; protein details: His6 removed, N-terminal GSH left; label: 5' Cy3 on strand 1, strand 2 unlabeled.

Data set [11] addresses T11, Redβ V79A (Bacteriophage λ (Enterobacteria phage λ)) (UniProt P03698).
T11 sequence (looked up): T1 sequence (looked up) with V79A, A80D
The conditions noted are these: 5 mM Mg2+, second strand added after first; ssDNA EMSA: 10 nM DNA, 50 mM potassium phosphate pH 6.0, 5 mM EDTA, 5% glycerol, 0.1 mg/ml BSA, 37°C, 40 min, then 0.1% glutaraldehyde; recombinant protein; residues 1-261; protein details: His6 removed, N-terminal GSH left; label: 5' Cy3 on strand 1, strand 2 unlabeled.

Data set [12] has as its target T12, Redβ WT (Bacteriophage λ (Enterobacteria phage λ)) (UniProt P03698).
T12 sequence (looked up): T1 sequence (looked up) with A80D
The conditions noted are these: 5 mM Mg2+, second strand added after first; ssDNA EMSA: 10 nM DNA, 50 mM potassium phosphate pH 6.0, 5 mM EDTA, 5% glycerol, 0.1 mg/ml BSA, 37°C, 40 min, then 0.1% glutaraldehyde; recombinant protein; residues 1-261; label: 5' Cy3 on strand 1, strand 2 unlabeled.

Data set [13] deals with T13, Redβ Y64A (Bacteriophage λ (Enterobacteria phage λ)) (UniProt P03698).
T13 sequence (looked up): T1 sequence (looked up) with Y64A, A80D
The conditions noted are these: 5 mM Mg2+, second strand added after first; ssDNA EMSA: 10 nM DNA, 50 mM potassium phosphate pH 6.0, 5 mM EDTA, 5% glycerol, 0.1 mg/ml BSA, 37°C, 40 min, then 0.1% glutaraldehyde; recombinant protein; residues 1-261; protein details: His6 removed, N-terminal GSH left; label: 5' Cy3 on strand 1, strand 2 unlabeled.

Numbering of substitutions follows the chain as printed. For some of these results: A weaker result is weaker than the reference pair of the same experiment. Where a protein sequence is shown, tags need not be part of it. For some of these results: The exact form of at least one protein or probe is not confirmed. For some of these results: At least one verdict rests on a figure or table, not on a statement of the authors.

Take “TGCGGATGGCTTAGAGCTTAATTGCTGAATCTGGTGCTGTAGCTCAACAT (double strand) [50-minus + 50-plus, sequentially added complementary strands]”: the binding result in data set [1], in data set [2], in [3], in data set [4], in data set [5] and in data set [6] was “binds more weakly” each time. Moreover, the binding result is “binds more weakly” in data set [7]; “binds more weakly” in data set [8]; “binds more weakly” in [9]; “binds more weakly” in data set [10]; “binds more weakly” in [11]; “binds” in [12]. Besides, in data set [13], the binding result is given as “binds more weakly”.
